Measured values from doi:10.1101/2021.06.01.446612.
These are yes or no findings as the source states them, for the method shown. Some entries that bind do so weakly or less than the wild type.

Sequences of proteins named here, by UniProt entry; tags and fusion partners are left off. A change or cut given only in a name is not applied to a line headed by its entry.
UniProt P48736, whole entry: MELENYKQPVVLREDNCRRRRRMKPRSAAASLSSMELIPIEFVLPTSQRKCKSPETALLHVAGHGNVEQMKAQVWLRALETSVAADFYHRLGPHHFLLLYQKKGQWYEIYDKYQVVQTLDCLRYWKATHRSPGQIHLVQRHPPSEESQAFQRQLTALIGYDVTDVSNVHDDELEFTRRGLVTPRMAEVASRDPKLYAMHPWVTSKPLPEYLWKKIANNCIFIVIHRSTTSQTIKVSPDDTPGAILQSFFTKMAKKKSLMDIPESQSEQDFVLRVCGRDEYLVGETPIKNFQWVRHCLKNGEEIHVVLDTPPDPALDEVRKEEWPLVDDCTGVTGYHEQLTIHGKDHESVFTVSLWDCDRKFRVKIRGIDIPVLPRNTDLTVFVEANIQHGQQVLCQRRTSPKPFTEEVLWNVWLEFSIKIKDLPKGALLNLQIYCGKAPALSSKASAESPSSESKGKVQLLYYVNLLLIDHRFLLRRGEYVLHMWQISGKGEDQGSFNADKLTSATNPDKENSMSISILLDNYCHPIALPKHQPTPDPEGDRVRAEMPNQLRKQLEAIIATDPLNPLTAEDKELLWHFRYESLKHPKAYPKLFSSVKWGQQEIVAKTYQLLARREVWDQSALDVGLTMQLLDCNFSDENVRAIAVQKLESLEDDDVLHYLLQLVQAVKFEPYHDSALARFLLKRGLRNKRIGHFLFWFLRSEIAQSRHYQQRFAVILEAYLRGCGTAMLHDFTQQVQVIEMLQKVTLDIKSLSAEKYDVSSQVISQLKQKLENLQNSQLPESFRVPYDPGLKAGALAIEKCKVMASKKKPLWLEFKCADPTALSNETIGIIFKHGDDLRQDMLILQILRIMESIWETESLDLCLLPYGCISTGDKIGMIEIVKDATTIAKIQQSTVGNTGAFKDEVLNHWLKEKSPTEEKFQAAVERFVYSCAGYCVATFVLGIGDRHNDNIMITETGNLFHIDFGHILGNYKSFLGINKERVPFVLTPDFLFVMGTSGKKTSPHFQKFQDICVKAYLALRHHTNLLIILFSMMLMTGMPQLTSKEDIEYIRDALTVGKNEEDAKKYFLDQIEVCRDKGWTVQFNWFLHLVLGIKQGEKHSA

Assays:
[1] = biological target: T1, p101 regulatory subunit of PI3Kγ, porcine (S. scrofa) (porcine (S. scrofa)) (UniProt O02696); test: SEC
T1 sequence: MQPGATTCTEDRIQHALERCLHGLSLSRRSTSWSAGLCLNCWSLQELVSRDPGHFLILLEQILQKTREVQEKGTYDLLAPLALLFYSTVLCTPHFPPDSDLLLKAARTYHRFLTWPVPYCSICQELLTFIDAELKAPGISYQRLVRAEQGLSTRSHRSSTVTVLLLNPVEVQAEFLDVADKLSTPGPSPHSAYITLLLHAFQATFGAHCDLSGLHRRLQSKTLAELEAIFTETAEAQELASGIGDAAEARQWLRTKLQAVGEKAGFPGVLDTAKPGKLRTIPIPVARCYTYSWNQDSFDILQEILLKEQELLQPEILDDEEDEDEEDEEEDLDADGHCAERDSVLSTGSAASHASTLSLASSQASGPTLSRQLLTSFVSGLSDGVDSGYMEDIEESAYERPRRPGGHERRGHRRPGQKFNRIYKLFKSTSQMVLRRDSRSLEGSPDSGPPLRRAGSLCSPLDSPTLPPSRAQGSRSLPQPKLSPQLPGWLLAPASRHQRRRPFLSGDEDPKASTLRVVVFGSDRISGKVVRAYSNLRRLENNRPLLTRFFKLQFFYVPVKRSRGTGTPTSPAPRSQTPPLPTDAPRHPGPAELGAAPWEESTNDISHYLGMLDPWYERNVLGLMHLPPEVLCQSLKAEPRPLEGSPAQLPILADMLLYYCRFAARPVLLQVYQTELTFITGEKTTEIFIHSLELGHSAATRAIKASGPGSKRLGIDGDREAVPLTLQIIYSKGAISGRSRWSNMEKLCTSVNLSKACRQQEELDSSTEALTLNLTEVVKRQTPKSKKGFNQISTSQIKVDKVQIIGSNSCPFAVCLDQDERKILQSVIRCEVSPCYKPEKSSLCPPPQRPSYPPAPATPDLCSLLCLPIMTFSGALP

[2] = biological target: T1, p101 regulatory subunit of PI3Kγ, porcine (S. scrofa) (porcine (S. scrofa)); test: cryo-EM structure
[3] = biological target: T1, p101 regulatory subunit of PI3Kγ, porcine (S. scrofa) (porcine (S. scrofa)); test: HDX-MS
[4] = biological target: T2, p84 regulatory subunit of PI3Kγ, mouse (mouse) (UniProt Q3U6Q4); test: HDX-MS
T2 sequence: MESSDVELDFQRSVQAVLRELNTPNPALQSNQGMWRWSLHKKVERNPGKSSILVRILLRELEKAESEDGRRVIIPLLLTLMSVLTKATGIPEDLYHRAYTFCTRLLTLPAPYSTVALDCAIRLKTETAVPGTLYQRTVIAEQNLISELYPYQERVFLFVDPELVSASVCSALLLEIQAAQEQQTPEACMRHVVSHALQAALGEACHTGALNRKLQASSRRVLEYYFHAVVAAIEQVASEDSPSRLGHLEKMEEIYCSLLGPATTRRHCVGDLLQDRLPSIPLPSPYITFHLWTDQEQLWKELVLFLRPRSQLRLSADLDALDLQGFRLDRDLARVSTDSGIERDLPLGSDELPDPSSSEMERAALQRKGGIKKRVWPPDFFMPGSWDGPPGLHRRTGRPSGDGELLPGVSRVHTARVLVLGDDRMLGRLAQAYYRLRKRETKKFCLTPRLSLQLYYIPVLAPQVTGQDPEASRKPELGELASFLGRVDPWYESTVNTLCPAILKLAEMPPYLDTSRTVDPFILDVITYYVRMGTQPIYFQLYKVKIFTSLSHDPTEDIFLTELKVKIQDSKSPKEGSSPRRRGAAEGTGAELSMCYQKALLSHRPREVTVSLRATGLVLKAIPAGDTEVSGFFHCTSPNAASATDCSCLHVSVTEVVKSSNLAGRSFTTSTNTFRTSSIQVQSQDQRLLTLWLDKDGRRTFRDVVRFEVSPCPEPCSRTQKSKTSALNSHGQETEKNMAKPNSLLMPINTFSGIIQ

[5] = biological target: T2, p84 regulatory subunit of PI3Kγ, mouse (mouse); test: SEC

Row | Substance | binding [1] | binding [2] | binding [3] | binding [4] | binding [5]
1 | p110γ E347K (p101 interface mutant) (from UniProt P48736 1-1102) (enzyme) | binds |  |  |  | 
2 | p110γ R472C (ABD interface mutant) (from UniProt P48736 1-1102) (enzyme) | binds |  |  |  | 
3 | p110γ catalytic subunit of PI3Kγ, full length human (from UniProt P48736 1-1102) (enzyme) | binds | binds | binds | binds | binds
4 | p110γ D369R (C2 domain, GBD-C2 interface mutant) (from UniProt P48736 1-1102) (enzyme) | binds |  |  |  | 
